This is one part of the list. These are further read-outs of the screen, such as a control signal, another cell line or another target. No call is given for them. Compounds called inactive in the main read-out are mostly missing here. The note in brackets gives the kind of curve behind each potency; many fits are weak.
Experiment: Cell signaling CRE-BLA (Fsk stim)
Conditions: CHO CRE-bla reporter (cAMP response element driving beta-lactamase), forskolin EC10, beta-lactamase ratio; measured here: 460 nm blue channel
Procedure, shortened: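 Forskolin analogue NKH 477 at EC10 stimulated CRE-driven beta-lactamase in CHO cells alongside compound dilution series. Beta-lactamase was measured with CCF4, excitation 405 nm, emission ratio 460/530 nm.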

| SMILES | AC50 |
| --- | --- |
| O=C1C2C3C=CC(CO)(O3)C2C(=O)N1c1ccccc1-c1ccccc1 (stereo not drawn) | 1 µM [falling, full curve] |
| CC1C2CC(CC1(C)C)N(C(=O)Nc1ccc3nccnc3c1)C2 (stereo not drawn) | 25.1 µM [rising, single point] |
| CCOC(=O)C1CCN(S(=O)(=O)c2ccc(-n3cnnn3)c(C)c2)CC1 | 5.01 µM [falling, single point] |
| O=C(Oc1cccc(N2C(=O)CCC2=O)c1)C1CC(=O)N(c2ccc(F)cc2)C1 (stereo not drawn) | 15.8 µM [falling, partial curve] |
| O=C(CC1Nc2ccccc2NC1=O)c1ccccc1 (stereo not drawn) | 20 µM [rising, single point] |
| COCCN1C=C(C(=O)OC)C(c2ccc3c(c2)OCO3)C(C(=O)OC)=C1 | 12.6 µM [rising, single point] |
| O=C(O)c1ccc2c(c1)nnn2C1CCCCC1 | 3.16 µM [rising, single point] |
| N#C/C(=C\c1ccc(O)c(O)c1)C(=O)NCCc1ccccc1 | 7.94 µM [falling, full curve, poor fit] |
| Fc1cccc2sc(Nc3nnc(-c4ccccc4)o3)nc12 | 2 µM [falling, full curve] |
| Cc1nc2c(cc(Oc3ccc(S(=O)(=O)N4CCOCC4)cn3)c3ccsc32)s1 | 10 µM [rising, partial curve] |
| CN(c1cc(=O)n2ccccc2n1)C1CCCCC1 | 3.16 µM [rising, single point] |
| O=c1cc(-c2ccccc2)[nH]c2nc(Cl)ccc12 | 12.6 µM [rising, single point] |
| COC(=O)c1c(-c2cccnc2)csc1NC(=O)c1cc(C)on1 | 2.51 µM [rising, full curve] |
| CN(C)c1ncc2nc(CCc3ccccc3)c(=O)n(CCc3ccccc3)c2n1 | 5.01 µM [rising, partial curve] |
| COC(=O)c1cccc(NC(=O)C2COc3ccccc3O2)c1 (stereo not drawn) | 0.00398 µM [falling, full curve, poor fit] |
| CC[C@H](C)[C@@H]1O[C@]2(CC[C@@H]1C)C[C@H]1C[C@H](CC=C(C)[C@@H](O[C@@H]3C[C@H](OC)[C@H](O[C@@H]4C[C@H](OC)[C@H](O)[C@H](C)O4)[C@H](C)O3)[C@@H](C)C=CC=C3CO[C@@H]4[C@@H](O)C(C)=C[C@@H](C(=O)O1)[C@]34O)O2 | 12.6 µM [falling, single point] |
| C=CCNC(=O)c1c(N)n(-c2ccc3c(c2)OCO3)c2nc3ccccc3nc12 | 0.398 µM [rising, full curve] |
| c1ccc(-c2noc(-c3cccnc3)n2)nc1 | 25.1 µM [rising, single point] |
| CCN1c2ccccc2NC2C1C(C(C)=O)C(=O)N2c1ccc(Cl)cc1 (stereo not drawn) | 12.6 µM [rising, partial curve] |
| Cc1ccc(-c2nc(CN(C)C)cc(CN(C)C)c2O)cc1 | 25.1 µM [rising, single point] |
| COCCn1c(=O)c(-c2ccc(OC)cc2)nc2cnc(Nc3cccc(OC)c3)nc21 | 2 µM [rising, full curve] |
| CN1CCN(c2ncc3nc(-c4ccccc4)c(=O)n(Cc4cccs4)c3n2)CC1 | 10 µM [rising, partial curve] |
| Cc1nc2cccc(C(=O)NCc3ccccc3)c2o1 | 0.00398 µM [falling, full curve] |

| SMILES | AC50 |
| --- | --- |
| O=C(CSc1nnc2scc(-c3ccccc3)n12)Nc1nsc(-c2ccc(Cl)cc2)n1 | 1.26 µM [rising, partial curve] |
| CCOC(=O)C1CCCN(C(=O)Cc2c(F)cccc2Cl)C1 (stereo not drawn) | 25.1 µM [falling, single point] |
| CSc1nsc(SCC(=O)N2CCN(c3ccccc3)CC2)n1 | 0.1 µM [falling, full curve] |
| CCNc1ncc2nc(-c3cccs3)c(=O)n(CCC#N)c2n1 | 10 µM [rising, partial curve] |
| Cc1nc2oc3c(NCC4CCCO4)ncnc3c2c2c1COC(C)(C)C2 (stereo not drawn) | 10 µM [rising, partial curve] |
| CCOC(=O)N1CCC(NC(=O)C2CCN(S(=O)(=O)c3cccs3)CC2)CC1 | 0.158 µM [falling, full curve] |
| Cc1onc(-c2ccccc2)c1C(=O)Nc1sc2c(c1C(N)=O)CCC2 | 10 µM [rising, partial curve] |
| Cc1c(/C(O)=C2\C(=O)C(=O)N(CCCN(C)C)C2c2ccncc2)cnn1-c1ccccc1 (stereo not drawn) | 25.1 µM [rising, single point] |
| O=P(c1ccccc1)(c1ccccc1)C(c1ccco1)N1CCOCC1 (stereo not drawn) | 0.126 µM [falling, full curve, poor fit] |
| Cc1nc(CSc2nnc3scc(-c4ccc(Cl)cc4)n23)cs1 | 10 µM [rising, partial curve] |
| O=S(=O)(c1ccccc1)c1ccc(NCc2ccco2)cc1 | 0.02 µM [rising, full curve] |
| CCOC(=O)c1ccc(N2C(=O)c3n[nH]c(C)c3C2c2ccccc2)cc1 (stereo not drawn) | 0.0251 µM [falling, partial curve] |
| c1cnc2c(SCc3ccc(-c4nnco4)cc3)cccc2c1 | 2.51 µM [rising, partial curve] |
| CC(=O)Nc1c(C(=O)N2CCOCC2)sc2nc3c(cc12)COC(C)(C)C3 | 10 µM [rising, single point] |
| CCSC(C)CC1C/C(=N/O)c2c(CC)noc2C1 (stereo not drawn) | 25.1 µM [rising, single point] |
| O=C(NCCCN1CCOCC1)c1ccc(Br)cc1 | 0.251 µM [rising, full curve, poor fit] |
| O=S(=O)(c1cccc(-c2nnc(SC(F)F)n2-c2ccccc2)c1)N1CCCCC1 | 10 µM [rising, partial curve] |
| CCOC(=O)c1cnc2c(C(=O)OC)cccc2c1NCc1ccco1 | 7.94 µM [rising, partial curve] |
| CCN(CC)CCn1c2ccccc2c2cnc(N=CN(C)C)c(C#N)c21 | 12.6 µM [rising, partial curve] |
| Cc1sc2ncnc(SCC(=O)N3CCCC3=O)c2c1C | 10 µM [rising, partial curve] |
| COc1ccc(CCNc2oc(-c3ccc(C)cc3)nc2C#N)cc1OC | 3.16 µM [rising, full curve] |
| N#Cc1nc(Cc2cccc3ccccc23)oc1NCc1ccco1 | 2.51 µM [rising, single point] |
| O=S(=O)(c1cccc(-c2cn3cc(Cl)ccc3n2)c1)N1CCOCC1 | 3.98 µM [rising, single point] |

Looked up by compound from the entries so far:

| SMILES | AC50 |
| --- | --- |
| O=S(=O)(c1cccc(-c2cn3cc(Cl)ccc3n2)c1)N1CCOCC1 | 3.98 µM [rising, single point] |
| Cc1nc(CSc2nnc3scc(-c4ccc(Cl)cc4)n23)cs1 | 10 µM [rising, partial curve] |

(list continues)

| SMILES | AC50 |
| --- | --- |
| c1ccc2c(-n3ccnc3)nc(-c3ccoc3)nc2c1 | 10 µM [rising, partial curve] |
| Cc1cc(=O)oc2cc(O)cc(O)c12 | 12.6 µM [rising, partial curve] |
| CCCCn1c2nc3ccccc3nc2c2c(=O)n(CCC)cnc21 | 1 µM [rising, full curve, poor fit] |
| O=c1[nH]cnc2nn(-c3ccccc3)nc12 | 10 µM [rising, single point] |
| O=c1c(-c2ccccc2)nc2cncnc2n1C1CC1 | 12.6 µM [rising, partial curve] |
| CCN(CC)c1nc2ccccc2n2cnnc12 | 12.6 µM [rising, partial curve] |
| COc1ccc(C2C=C(c3ccc(C)c(C)c3)Nc3ncnn32)c(OC)c1OC (stereo not drawn) | 12.6 µM [rising, partial curve] |
| CCOC(=O)CCP(=O)(O)C(O)c1ccc(OC)cc1 (stereo not drawn) | 2.51 µM [rising, full curve, poor fit] |
| CCC(SC1=Nc2ccccc2C2=NC(CC(C)C)C(=O)N12)C(=O)Nc1ccc2c(c1)OCO2 (stereo not drawn) | 10 µM [rising, partial curve] |
| CC(C)CC(=O)Nc1cccc(-c2nc3ccccc3o2)c1 | 25.1 µM [rising, single point] |
| CC(C)[C@H](NC(=O)OC(C)(C)C)c1nnc(S(=O)(=O)Cc2c(F)cccc2Cl)o1 | 1 µM [falling, full curve] |
| Cc1ccc(-n2c(=O)c3sccc3n(CC(=O)N3CCCC3)c2=O)cc1 | 0.251 µM [falling, full curve] |
| Cc1ccc2c(CC(=O)OCc3nc(N)nc(Nc4ccccc4C)n3)coc2c1 | 3.16 µM [falling, single point] |
| CCC[C@@H]1C[C@@]1(CCC)C(NS(=O)(=O)c1cccc2cccnc12)c1ccc(Cl)cc1 (stereo partly drawn) | 5.01 µM [falling, single point] |
| COc1ccccc1C(OC(=O)c1cccs1)C(=O)NCc1ccco1 (stereo not drawn) | 0.1 µM [falling, full curve, poor fit] |
| COCC(=O)Nc1nc(-c2ccccc2)c(C)s1 | 5.01 µM [rising, partial curve, poor fit] |
| CCN(CC)c1ccc2c(C)cc(=O)oc2c1 | 25.1 µM [rising, partial curve] |
| Cc1ccccc1C(=O)Nc1ccc2nc3n(c(=O)c2c1)CCC3 | 10 µM [rising, partial curve] |
| CCOC(=O)c1ccc(-c2c(C(=O)OCC)oc3cc(O)c(CC)cc3c2=O)o1 | 31.6 µM [falling, single point] |
| COCCCN1C(=O)c2[nH]nc(-c3cc(C)cc(C)c3O)c2C1c1ccc(O)c(OC)c1 (stereo not drawn) | 10 µM [rising, partial curve] |
| N#Cc1nc(-c2ccccc2Cl)oc1N1CCOCC1 | 12.6 µM [rising, single point] |
| CCOC(=O)c1c(C)[nH]c2cc(Br)c(OC)cc12 | 10 µM [rising, partial curve] |

Three compounds already listed, ordered by SMILES length, low to high:

| SMILES | AC50 |
| --- | --- |
| CCN(CC)c1nc2ccccc2n2cnnc12 | 12.6 µM [rising, partial curve] |
| Cc1ccc(-n2c(=O)c3sccc3n(CC(=O)N3CCCC3)c2=O)cc1 | 0.251 µM [falling, full curve] |
| CCC(SC1=Nc2ccccc2C2=NC(CC(C)C)C(=O)N12)C(=O)Nc1ccc2c(c1)OCO2 (stereo not drawn) | 10 µM [rising, partial curve] |

From PubChem BioAssay AID662 (National Center for Advancing Translational Sciences (NCATS), 2007)
